According to the supplement of paper PMC8728848:
The other results are listed elsewhere or left out.

Key:
Test in all cases: glycan array binding signal (z-score within array); higher = stronger binding
Details in all cases: glycan notation: IUPAC condensed, linker removed
[1] = target: Fuc(a1-2)Gal(b1-4)GlcNAc(b1-3)Gal(b1-4)GlcNAc(b1-3)Gal(b1-4)GlcNAc
Outline: (§1)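 Glycan array binding is given as a within-array Z-score, which can be read as non-binding when negative. The arrays, 3228 of them, came from the Consortium for Functional Glycomics database and were retained only where the protein sequence was available. Z-scores were averaged across arrays of the same protein sequence at different concentrations or buffers and across linkers.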

[2] = target: Fuc(a1-2)Gal(b1-4)GlcNAc(b1-3)GalNAc
Outline: as §1

[3] = target: Fuc(a1-2)Gal(b1-4)GlcNAc(b1-3)[Fuc(a1-2)Gal(b1-4)GlcNAc(b1-6)]GalNAc
Outline: as §1

[4] = target: Fuc(a1-2)Gal(b1-4)GlcNAc(b1-3)[Fuc(a1-3)[Gal(b1-4)]GlcNAc(b1-6)]Gal(b1-4)Glc
Outline: as §1

[5] = target: Fuc(a1-2)Gal(b1-4)GlcNAc(b1-6)GalNAc
Outline: as §1

[6] = target: Fuc(a1-2)Gal(b1-4)GlcNAc6S
Outline: as §1

[7] = target: Fuc(a1-2)Gal(b1-4)[Fuc(a1-3)]GlcNAc
Outline: as §1

[8] = target: Fuc(a1-2)Gal(b1-4)[Fuc(a1-3)]GlcNAc(b1-2)Man(a1-3)[Fuc(a1-2)Gal(b1-4)[Fuc(a1-3)]GlcNAc(b1-2)Man(a1-6)]Man(b1-4)GlcNAc(b1-4)[Fuc(a1-6)]GlcNAc
Outline: as §1

[9] = target: Fuc(a1-2)Gal(b1-4)[Fuc(a1-3)]GlcNAc(b1-2)[Fuc(a1-2)Gal(b1-4)[Fuc(a1-3)]GlcNAc(b1-4)]Man(a1-3)[Fuc(a1-2)Gal(b1-4)[Fuc(a1-3)]GlcNAc(b1-2)Man(a1-6)]Man(b1-4)GlcNAc(b1-4)GlcNAc
Outline: as §1

[10] = target: Fuc(a1-2)Gal(b1-4)[Fuc(a1-3)]GlcNAc(b1-3)Gal(b1-4)[Fuc(a1-3)]GlcNAc
Outline: as §1

[11] = target: Fuc(a1-2)Gal(b1-4)[Fuc(a1-3)]GlcNAc(b1-3)Gal(b1-4)[Fuc(a1-3)]GlcNAc(b1-3)Gal(b1-4)[Fuc(a1-3)]GlcNAc
Outline: as §1

[12] = target: Fuc(a1-2)Gal(b1-4)[Fuc(a1-3)]GlcNAc(b1-3)GalNAc
Outline: as §1

[13] = target: Fuc(a1-2)Gal(b1-4)[Fuc(a1-3)]GlcNAc(b1-3)[Neu5Ac(a2-6)Gal(b1-4)GlcNAc(b1-6)]Gal(b1-4)Glc
Outline: as §1

[14] = target: Fuc(a1-2)Gal3S(b1-4)GlcNAc
Outline: as §1

[15] = target: Fuc(a1-2)Gal6S(b1-3)GlcNAc
Outline: as §1

[16] = target: Fuc(a1-2)Gal6S(b1-3)GlcNAc6S
Outline: as §1

Fuc(a1-2)Gal6S(b1-4)Glc = target: Fuc(a1-2)Gal6S(b1-4)Glc
Outline: as §1

[17] = target: Fuc(a1-2)Gal6S(b1-4)Glc6S
Outline: as §1

Fuc(a1-2)[Gal(a1-3)]Gal = target: Fuc(a1-2)[Gal(a1-3)]Gal
Outline: as §1

[18] = target: Fuc(a1-2)[Gal(a1-3)]Gal(b1-3)GalNAc
Outline: as §1

[19] = target: Fuc(a1-2)[Gal(a1-3)]Gal(b1-3)GalNAc(b1-3)Gal(a1-4)Gal(b1-4)Glc
Outline: as §1

[20] = target: Fuc(a1-2)[Gal(a1-3)]Gal(b1-3)GlcNAc
Outline: as §1

[21] = target: Fuc(a1-2)[Gal(a1-3)]Gal(b1-3)GlcNAc(b1-2)Man(a1-3)[Fuc(a1-2)[Gal(a1-3)]Gal(b1-3)GlcNAc(b1-2)Man(a1-6)]Man(b1-4)GlcNAc(b1-4)GlcNAc
Outline: as §1

[22] = target: Fuc(a1-2)[Gal(a1-3)]Gal(b1-3)GlcNAc(b1-2)Man(a1-3)[Fuc(a1-2)[Gal(a1-3)]Gal(b1-3)GlcNAc(b1-2)Man(a1-6)]Man(b1-4)GlcNAc(b1-4)[Fuc(a1-6)]GlcNAc
Outline: as §1

[23] = target: Fuc(a1-2)[Gal(a1-3)]Gal(b1-3)GlcNAc(b1-3)GalNAc
Outline: as §1

[24] = target: Fuc(a1-2)[Gal(a1-3)]Gal(b1-3)GlcNAc(b1-6)GalNAc
Outline: as §1

[25] = target: Fuc(a1-2)[Gal(a1-3)]Gal(b1-4)Glc
Outline: as §1

[26] = target: Fuc(a1-2)[Gal(a1-3)]Gal(b1-4)GlcNAc
Outline: as §1

[27] = target: Fuc(a1-2)[Gal(a1-3)]Gal(b1-4)GlcNAc(b1-2)Man
Outline: as §1

[28] = target: Fuc(a1-2)[Gal(a1-3)]Gal(b1-4)GlcNAc(b1-2)Man(a1-3)[Fuc(a1-2)[Gal(a1-3)]Gal(b1-4)GlcNAc(b1-2)Man(a1-6)]Man(b1-4)GlcNAc(b1-4)GlcNAc
Outline: as §1

B1: Clec18Av1 (Homo sapiens), A5D8T8 (protein)
chain: MLHPETSPGRGHLLAVLLALLGTAWAEVWPPQLQEQAPMAGALNRKESFLLLSLHNRLRSWVQPPAADMRRLDWSDSLAQLAQARAALCGTPTPSLASGLWRTLQVGWNMQLLPAGLVSFVEVVSLWFAEGQRYSHAAGECARNATCTHYTQLVWATSSQLGCGRHLCSAGQAAIEAFVCAYSPRGNWEVNGKTIVPYKKGAWCSLCTASVSGCFKAWDHAGGLCEVPRNPCRMSCQNHGRLNISTCHCHCPPGYTGRYCQVRCSLQCVHGRFREEECSCVCDIGYGGAQCATKVHFPFHTCDLRIDGDCFMVSSEADTYYRARMKCQRKGGVLAQIKSQKVQDILAFYLGRLETTNEVIDSDFETRNFWIGLTYKTAKDSFRWATGEHQAFTSFAFGQPDNHGFGNCVELQASAAFNWNDQRCKTRNRYICQFAQEHISRWGPGS
glycan array binding signal (z-score) [1]: -0.81
glycan array binding signal (z-score) [2]: 0.829
glycan array binding signal (z-score) [3]: -0.032
glycan array binding signal (z-score) [4]: -0.443
glycan array binding signal (z-score) [5]: 0.166
glycan array binding signal (z-score) [6]: 0.376
glycan array binding signal (z-score) [7]: -0.818
glycan array binding signal (z-score) [8]: 0.083
glycan array binding signal (z-score) [9]: -0.666
glycan array binding signal (z-score) [10]: -0.839
glycan array binding signal (z-score) [11]: -0.815
glycan array binding signal (z-score) [12]: 0.606
glycan array binding signal (z-score) [13]: -0.622
glycan array binding signal (z-score) [14]: 0.478
glycan array binding signal (z-score) [15]: -0.35
glycan array binding signal (z-score) [16]: 1.5
glycan array binding signal (z-score) (Fuc(a1-2)Gal6S(b1-4)Glc): 2.53
glycan array binding signal (z-score) [17]: -0.08
glycan array binding signal (z-score) (Fuc(a1-2)[Gal(a1-3)]Gal): -0.827
glycan array binding signal (z-score) [18]: -0.089
glycan array binding signal (z-score) [19]: -0.861
glycan array binding signal (z-score) [20]: -0.136
glycan array binding signal (z-score) [21]: 0.049
glycan array binding signal (z-score) [22]: -0.406
glycan array binding signal (z-score) [23]: 0.04
glycan array binding signal (z-score) [24]: -0.361
glycan array binding signal (z-score) [25]: -0.793
glycan array binding signal (z-score) [26]: -0.69
glycan array binding signal (z-score) [27]: -0.057
glycan array binding signal (z-score) [28]: 3.05
